Experimental data published in article PMC8591511, “Flexible open conformation of the AP-3 complex explains its role in cargo recruitment at the Golgi” (The Journal of Biological Chemistry, 2021).
No constants are given. Whether binding was seen depends on the method and setting. Some entries that bind do so weakly or less than the wild type.

By UniProt entry, the sequences of proteins in these tests, tags left out. Where a name states a change or a piece, a line headed by the entry shows the natural chain unless it says otherwise.
UniProt P56962: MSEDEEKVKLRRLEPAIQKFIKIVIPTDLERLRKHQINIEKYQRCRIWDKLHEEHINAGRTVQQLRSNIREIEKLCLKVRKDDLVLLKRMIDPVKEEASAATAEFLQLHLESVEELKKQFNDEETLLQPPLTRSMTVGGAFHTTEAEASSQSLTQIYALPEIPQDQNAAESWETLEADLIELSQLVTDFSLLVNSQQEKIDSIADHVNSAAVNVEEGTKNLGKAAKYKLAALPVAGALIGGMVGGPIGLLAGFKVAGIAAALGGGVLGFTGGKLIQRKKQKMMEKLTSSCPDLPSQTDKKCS
UniProt Q08951: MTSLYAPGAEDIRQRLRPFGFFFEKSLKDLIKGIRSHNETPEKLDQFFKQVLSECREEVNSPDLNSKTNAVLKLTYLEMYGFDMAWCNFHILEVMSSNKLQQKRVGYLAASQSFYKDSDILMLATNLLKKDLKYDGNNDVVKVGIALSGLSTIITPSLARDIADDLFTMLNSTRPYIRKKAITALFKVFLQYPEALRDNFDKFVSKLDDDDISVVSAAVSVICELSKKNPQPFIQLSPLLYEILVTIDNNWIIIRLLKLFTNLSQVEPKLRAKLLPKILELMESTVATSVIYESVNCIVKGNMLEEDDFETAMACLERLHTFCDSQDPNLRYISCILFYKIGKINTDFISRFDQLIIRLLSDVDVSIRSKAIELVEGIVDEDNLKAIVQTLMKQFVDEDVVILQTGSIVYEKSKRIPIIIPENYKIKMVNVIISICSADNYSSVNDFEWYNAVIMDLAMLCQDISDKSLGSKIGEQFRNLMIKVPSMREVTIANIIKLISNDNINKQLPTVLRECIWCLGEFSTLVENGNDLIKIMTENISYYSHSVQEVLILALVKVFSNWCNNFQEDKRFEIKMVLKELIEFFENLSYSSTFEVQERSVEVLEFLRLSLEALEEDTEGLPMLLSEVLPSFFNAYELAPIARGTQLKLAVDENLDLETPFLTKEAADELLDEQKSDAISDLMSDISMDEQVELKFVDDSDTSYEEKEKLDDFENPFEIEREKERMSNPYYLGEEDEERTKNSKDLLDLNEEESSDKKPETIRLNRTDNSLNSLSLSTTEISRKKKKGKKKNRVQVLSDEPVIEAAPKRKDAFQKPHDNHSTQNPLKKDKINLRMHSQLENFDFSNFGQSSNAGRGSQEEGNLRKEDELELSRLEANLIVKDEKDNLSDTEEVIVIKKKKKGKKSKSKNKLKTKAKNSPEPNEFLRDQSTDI

What was measured:
[1] = molecular target: T1, N-myristoylated Arf1, loaded with GTP or GTPγS by Sec7ΔC (UniProt P11076); test: single-molecule TIRF microscopy on polymer-supported membranes; polymer-supported membranes (Golgi mixture with 1 mol% PI4P) with or without Arf1 (10 nM), Sec7ΔC (10 nM) and 400 μM GTPγS, or reconstituted Vam3; GFP-tagged AP-3 (2 nM) labelled with anti-GFP nanobody-Dy647; room temperature; monitored 45 min; both purified
T1 sequence (chain, N-myristoylated (confirmed by mass spectrometry)): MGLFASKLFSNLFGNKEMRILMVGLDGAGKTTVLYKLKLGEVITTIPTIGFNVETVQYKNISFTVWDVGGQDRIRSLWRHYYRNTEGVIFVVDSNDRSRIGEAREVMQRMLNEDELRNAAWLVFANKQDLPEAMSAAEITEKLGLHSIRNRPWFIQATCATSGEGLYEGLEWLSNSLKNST

[2] = molecular target: T1, N-myristoylated Arf1, loaded with GTP or GTPγS by Sec7ΔC; test: liposome flotation assay; empty liposomes (Golgi-mimicking lipid mix, with or without PI3P or PI4P) incubated with increasing Arf1, Sec7 GEF and GTP, then purified AP-1 or AP-3 complex; floated on a sucrose step gradient; band of Apl4 or Apl5 in the top fraction quantified; both purified
[3] = molecular target: Syntaxin 17 (not stated (mammalian)) (UniProt P56962); test: condition: proteoliposomes carrying a total of 1 μM cargo; without PIPs or Arf1; liposome flotation assay; proteoliposomes (Golgi-mimicking lipid mix) carrying a total of 1 μM cargo, incubated with purified AP-1 or AP-3 complex, floated on a sucrose step gradient; top fraction TCA-precipitated, SDS-PAGE, band of Apl4 or Apl5 quantified as percent of load; in Fig. 6E without PIPs or Arf1, in Fig. 6D also with Arf1 and PI3P or PI4P; 150 mM NaCl, 20 mM HEPES/NaOH pH 7.4, 1 mM MgCl2, 10 % glycerol, 60 min 4 °C; both purified

binding [1] | binding [2] | binding [3] | Substance
binds |  |  | GFP-tagged AP-3 complex (Apl6 tagged C-terminally with mGFP) (from UniProt Q08951 1-932; P46682 1-809; P38153 1-483; P47064 1-194)
 | binds weakly | no binding | full-length yeast AP-3 complex (from UniProt Q08951 1-932; P46682 1-809; P38153 1-483; P47064 1-194)
